# Results of single-concentration screens

Sequences of proteins named here, by UniProt entry; tags and fusion partners are left off. Residues count along the entry.
UniProt Q8IDJ8, 1-583: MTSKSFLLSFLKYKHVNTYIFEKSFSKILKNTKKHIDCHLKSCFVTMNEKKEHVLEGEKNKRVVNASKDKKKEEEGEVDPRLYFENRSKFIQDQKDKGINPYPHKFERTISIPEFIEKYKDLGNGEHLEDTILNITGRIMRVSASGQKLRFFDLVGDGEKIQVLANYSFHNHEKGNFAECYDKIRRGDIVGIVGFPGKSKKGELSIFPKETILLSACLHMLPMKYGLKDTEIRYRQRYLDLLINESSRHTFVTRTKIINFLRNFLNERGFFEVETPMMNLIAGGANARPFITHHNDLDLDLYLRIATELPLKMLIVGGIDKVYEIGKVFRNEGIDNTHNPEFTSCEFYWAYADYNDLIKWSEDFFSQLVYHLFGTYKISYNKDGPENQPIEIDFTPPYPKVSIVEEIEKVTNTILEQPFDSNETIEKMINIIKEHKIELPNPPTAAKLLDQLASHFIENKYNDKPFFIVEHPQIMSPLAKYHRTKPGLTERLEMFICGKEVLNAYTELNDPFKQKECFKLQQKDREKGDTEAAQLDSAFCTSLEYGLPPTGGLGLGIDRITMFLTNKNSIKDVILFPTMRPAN
UniProt Q4DA54, 1-478: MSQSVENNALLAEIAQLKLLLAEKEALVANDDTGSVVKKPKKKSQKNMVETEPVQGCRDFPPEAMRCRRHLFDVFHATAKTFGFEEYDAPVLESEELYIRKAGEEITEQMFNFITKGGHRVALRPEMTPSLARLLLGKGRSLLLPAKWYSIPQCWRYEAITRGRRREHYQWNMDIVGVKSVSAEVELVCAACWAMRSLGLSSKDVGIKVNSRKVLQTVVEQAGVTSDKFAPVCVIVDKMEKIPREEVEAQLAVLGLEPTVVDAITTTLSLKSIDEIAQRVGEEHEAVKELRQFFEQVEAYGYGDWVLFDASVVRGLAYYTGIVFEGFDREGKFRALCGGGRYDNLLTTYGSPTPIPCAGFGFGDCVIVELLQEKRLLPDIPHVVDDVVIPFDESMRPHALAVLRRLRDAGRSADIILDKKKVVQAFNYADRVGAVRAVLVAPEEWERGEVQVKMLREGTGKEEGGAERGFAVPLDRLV

The filed quantity is “Percent Effect” (%).
The record does not define 0% and 100%; most values in the screen are far below 50% and negative numbers occur (in some assays of this library far below -100).
This is an unselected part of the compounds tested.
Two or more numbers in one place are separate tests of the same structure; such repeats can differ widely.
A dash means the value is not listed here; it may have been measured.

Leishmania in macrophages: 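Cell assay of Leishmania donovani living inside macrophages; the read-out is not stated. Tested at 30 µM. Higher reads as stronger inhibition (inferred: compounds with an IC50 in retests scored well above the rest). About 69,000 compounds were tested under these conditions; 1.5% (about 1,000) showed 50% or more at least once.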
T. brucei: 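Whole-parasite assay of Trypanosoma brucei over 72 hours; the read-out is not stated. Concentration: 30 µM. Direction is inferred from retests: higher values go with stronger inhibition. Values scatter widely below zero; nearly all retest evidence comes from the higher of the two concentrations used. Size under these conditions: about 64,000 compounds, about 940 of them at 50% or above in at least one test.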
Toxoplasma: 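Assay of Toxoplasma gondii numbers, read through their beta-galactosidase reporter with a colour substrate. Concentration: 10 µM. Higher reads as fewer parasites (inferred from which compounds were picked for retests). Of about 67,000 compounds tested this way, about 260 (0.38%) reached 50% or more in at least one test.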
PfKRS1: 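Lysine-tRNA ligase, Plasmodium falciparum 3D7 (UniProt Q8IDJ8). Enzyme assay of the cytosolic lysyl-tRNA synthetase in 384-well plates, read by luminescence. Tested at 30 µM. Higher reads as stronger inhibition, judged from the few compounds that gave an IC50. About 69,000 compounds were tested under these conditions; 0.071% (about 49) showed 50% or more at least once.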
TcHisRS: 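Enzyme assay of histidyl-tRNA synthetase; the read-out is not stated. Target: Histidine-tRNA ligase, Trypanosoma cruzi CL Brener (UniProt Q4DA54). Compounds at 30 µM. The record gives no direction; compounds that gave an IC50 in retests scored well above the rest, so higher reads as stronger inhibition. Of about 69,000 compounds tested this way, about 31 (0.045%) reached 50% or more in at least one test.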

| # | Compound | Leishmania in macrophages | T. brucei | Toxoplasma | PfKRS1 | TcHisRS |
|---|---|---|---|---|---|---|
| 1 | `c1cc2nc(C3CCN(CC4CC4)CC3)nn2cc1N1CCCC1` | - | - | - | 1.292 | 5.785 |
| 2 | `COc1cc(F)c(C(=O)NCc2ccon2)c(F)c1` | -36.36 | -11.84 | 14.7 | 2.984 | 9.091 |
| 3 | `CCC(CN1CCCCC1)NC(=O)C1(c2ccc(F)cc2)CC1` (stereo unspecified) | - | - | - | 3.17 | 8.333 |
| 4 | `CC(C)c1nc(CN2CCCC2Cn2cncn2)no1` (stereo unspecified) | 1.745 | -27.8 | 13.9 | 1.096 | 2.367 |
| 5 | `CC(C)(C)c1c[nH]c([C@@H]2COCCN2C2CCNCC2)n1` | 18.82 | -1.639 | 14.21 | 2.547 | 4.348 |
| 6 | `Cc1ccc(S(=O)(=O)n2ccn(C(=O)CC(C)C)c2=O)cc1` | 19.68 and 21.13 | 0.2442 | 0.603 | 4.051 | 2.439 |
| 7 | `CC1=C(C(N)=O)C(c2cn(C)nc2C)N2C(=O)CSC2=N1` (stereo unspecified) | -1.445 | 6.158 | 7.594 | 1.741 | 3.097 |
| 8 | `COc1cc(Cl)ccc1C(=O)NCc1n[nH]c(C)n1` | -4.041 | 4.346 | -1.725 | 0.1444 | 1.064 |
| 9 | `Cn1cc(CN2CC[C@H]3O[C@H](C(=O)NCc4ccco4)CC[C@H]32)cn1` | - | - | - | 3.085 | 0.5405 |
| 10 | `CCc1ccc(CN2CCN(C)C3(CCC(=O)N(CC4CC4)CC3)C2)o1` (stereo unspecified) | 11.44 | -46.88 | 13.48 | 8.944 | 7.143 |
| 11 | `Cc1c(Br)cccc1NC(=O)N(C)CCO` | -7.766 | -7.695 | 6.956 | 6.236 | 5.952 |
| 12 | `COC1CCN(C(=O)Cc2csc(-c3ccc(F)cc3)n2)CC1` | 20.31 | 9.7 | -5.988 | 0.4466 | 4.142 |
| 13 | `COc1ccccc1C1CCN(c2ccc3cc[nH]c3n2)CC1` | 8.887 | -4.438 | 2.703 | 5.85 | 2.235 |
| 14 | `Cc1noc(C)c1CN1C[C@@H]2COC[C@]2(COc2ccc(C#N)cn2)C1` | - | - | - | 9.763 | 3.509 |
| 15 | `NC(=O)C1CCN(C(=O)c2ccc(OCc3cscn3)cc2)CC1` | -33.8 | -13.89 | -13.69 | -2.831 | 2.053 |
| 16 | `O=C(NCCn1nc2ccccn2c1=O)c1scnc1Cl` | 35.61 | - | 6.837 | 0.5297 | 9.621 |
| 17 | `CC(C)c1nc2n(n1)CC(Nc1ncnc3c1CCC3)CC2` (stereo unspecified) | 40.56 | - | -11.06 | 3.267 | 4.598 |
| 18 | `O=C(c1cc(F)ccc1F)C1CCN(C(=O)c2cnccn2)CC1` | 16.52 | - | -8.292 | -0.02709 | 6.122 |
| 19 | `CCC(CNC(=O)c1ccccc1Br)N1CCc2ccccc2C1` (stereo unspecified) | 33.82 | -39.66 | 3.161 | 3.053 | 3.941 |
| 20 | `CC(c1nnc(-c2cccs2)o1)N1CCn2c(nnc2C2CC2)C1` (stereo unspecified) | 16.4 | -35.89 | 9.296 | 0.3665 | 4.444 |
| 21 | `COc1cc(C(=O)N2CCCC(n3ccnc3)C2)cc2c1OCCO2` (stereo unspecified) | 27.73 | -5.097 | -6.852 | 1.756 | -1.69 |
| 22 | `O=C(NCCN1CCCCCC1)c1n[nH]c(=O)c2ccccc12` | -32.33 | -11.53 | -15.73 | 1.659 | 4.611 |
| 23 | `CC(C)N[C@@H]1CO[C@H](CNC(=O)c2cccs2)[C@H]1O` | -30.64 | -49.78 | -3.938 | -0.8684 | 6.931 |
| 24 | `c1cc(CO[C@@H]2CN(Cc3ccoc3)[C@@H]3CCCO[C@@H]32)ccn1` | - | - | - | 2.683 | 7.407 |
| 25 | `c1cnc(N2CCC(c3nccn3CC3CC3)CC2)nc1` | 16.5 | -50.89 | 24.47 | 9.913 | 3.478 |
| 26 | `O=C(O)C(F)(F)F.O=C(O)C(F)(F)F.[H][C@]12C[C@@H](Cn3cncn3)N(C(C)=O)[C@@]1([H])CCN(Cc1ccncc1)C2` | 16.79 | -12.55 | 4.064 | - | - |
| 27 | `CS(=O)(=O)CCCNC1CCCN(Cc2noc(C3CC3)n2)C1` (stereo unspecified) | 17.35 | 15.28 | 2.95 | 1.67 | 4.103 |
| 28 | `Cc1nc(CN2CCC(CNC(=O)CCC3CCCC3)CC2)oc1C` | -50.55 | -13.54 | -0.7536 | 2.703 | 9.302 |
| 29 | `CN(Cc1ccc(C#N)cc1)CC1CCS(=O)(=O)C1` (stereo unspecified) | -19.35 | -45.53 | 7.129 | 1.839 | 2.609 |
| 30 | `O=c1cc(N2CCOCC2)cnn1CCc1ccc(F)cc1` | 27.54 | -42.51 | -21.77 | -1.3 | 4.938 |
| 31 | `O=C(O)C(F)(F)F.[H][C@]12CCCC(OCc3cccnc3)[C@@]1([H])CN(C(=O)c1ccoc1C)C2` (stereo partly specified) | 9.944 | -11.62 | 4.282 | - | - |
| 32 | `CCc1nc(N2CCC3(CC2)CC(=O)N(Cc2ccc(Cl)cc2)C3)no1` | -5.034 | -7.919 | 11.93 | 7.577 | 3.627 |
| 33 | `[H][C@]12CC[C@]([H])(CN(C(=O)c3c[nH]c(=O)c(Cl)c3)C1)N(CC1CCC1)C2` | -8.502 | -48.8 | -7.818 | - | - |
| 34 | `O=C1N(c2cccnc2)CCC12CCCN(Cc1ccco1)C2` (stereo unspecified) | - | - | - | 6.64 | 10.78 |
| 35 | `Cn1c(CN2CCN(c3cccnc3)CC2)cc2ccccc21` | -39.32 | 1.703 | 10.67 | 3.778 | 12.12 |
| 36 | `CCn1c(C)nnc1SCCNC(=O)Cn1cnc2ccccc2c1=O` | 7.809 | -9.762 | -7.832 | 5.065 | 6.358 |
| 37 | `CNC(=O)c1cc2c(nc1NCC1CC1)CCN(S(=O)(=O)C1CC1)CC2` | 10.23 | -16.56 | -1.996 | -4.565 | 0 |
| 38 | `Cc1cnc(N2CCC3(CC2)CN(Cc2cccs2)CCO3)nc1.O=C(O)C(F)(F)F.O=C(O)C(F)(F)F` | 29.21 | -4.429 | 8.97 | - | - |
| 39 | `O=C(c1cc[nH]n1)N1CCc2c(nc(N3CCCCC3)[nH]c2=O)C1` | 2.157 | 4.545 | -1.167 | 1.132 | 4.255 |
| 40 | `Cn1cncc1CNC1CC2(CCN(S(C)(=O)=O)CC2)c2ccccc21.O=C(O)C(F)(F)F` (stereo unspecified) | 12.21 | -54.77 | -38.78 | - | - |
| 41 | `CCn1ncc2c1CCCC2NCc1ccc(OC)c(F)c1` (stereo unspecified) | 5.452 | - | -2.385 | 0.5525 | 2.286 |
| 42 | `CCn1ccnc1CNCC(c1ccc(C)s1)N1CCOCC1` (stereo unspecified) | 6.259 | -11.97 | 2.412 | 2.694 | 8.621 |
| 43 | `O=C(NC1CCCc2nc(N3CCCCC3)ncc21)C1CCCC1` (stereo unspecified) | 8.784 | -7.412 | -12.04 | 0.9307 | -6.383 |
| 44 | `CC(=O)N1CC[C@H]2CC(=O)N(Cc3ccc4c(c3)OCO4)CC[C@H]2C1` | - | - | - | 3.853 | 9.901 |
| 45 | `Cc1nc(-c2ccccc2)n(CC(=O)NC(C)C2CC2)n1` (stereo unspecified) | 20.11 | -44.02 | -2.588 | 4.286 | 1.961 |
| 46 | `CC1CCc2c(c3ccccc3[nH]c2=O)O1` (stereo unspecified) | 22.7 | -26.3 | 15.45 | 1.098 | 11.34 |
| 47 | `c1coc(CN2CCCC3(COCCN(Cc4c[nH]nn4)C3)C2)c1` (stereo unspecified) | - | - | - | -0.02373 | 3.784 |
| 48 | `N#Cc1nccnc1N1CCC(COCc2ccccc2)C1` (stereo unspecified) | -14.15 | -34.99 | -4.806 | -2.406 | 0.578 |
| 49 | `O=C(Nc1cnccn1)[C@@H]1C[C@H]2OCC[C@H]2N(Cc2ccsc2)C1` | - | - | - | 6.402 | 2.479 |
| 50 | `O=C(NCCCOC1CCCCC1)C1NCCc2[nH]cnc21` (stereo unspecified) | 6.477 | -8.894 | -0.5196 | 12.01 | 6.522 |
| 51 | `CC(C)c1nnc2n1CCN(C(=O)c1ccc3c(c1)NC(=O)CO3)C2` | 10.03 | 10.67 | 12.87 | -0.1242 | -0.5618 |
| 52 | `CNC(=O)COc1c(F)cc(Br)cc1C(C)=O` | 15.86 | -38.62 | 10.83 | 0.7564 | 11 |
| 53 | `Cn1ccnc1CN1CCCN(C(=O)CC(C2CC2)C2CC2)CC1` | 10.73 | 0.5766 | 6.476 | -1.097 | -2.817 |
| 54 | `CC(C)CNC(=O)N1C[C@@H]2CCCN[C@@H]2C1` | - | - | - | 4.52 | 4.854 |
| 55 | `[H][C@@]12CCCN1C[C@@H](CCSC)N(Cc1cn(C)nc1C)C2` | -2.658 | -13.95 | -17.54 | - | - |
| 56 | `COc1ccccc1CCN(C)Cc1nc(N)nc(N(C)C)n1` | 17.72 | -9.38 | 2.869 | -0.246 | 3.867 |
| 57 | `CN(CCOc1ccccc1)C(=O)Nc1cccn(C)c1=O` | -12.14 | -12.81 | -6.177 | 4.324 | 14.29 |
| 58 | `CO[C@H]1CO[C@@]2(CCCN(C(=O)C3=CCCCC3)C2)C1` | 14.81 | 25.61 | -0.3205 | 4.888 | 1.622 |
| 59 | `Cc1cnn(CC(C)NCC(=O)NC2CCOCC2)c1` (stereo unspecified) | -35.87 | 40.54 | -8.825 | 2.305 | 1.587 |
| 60 | `CN(C)[C@@H]1CCN(S(=O)(=O)c2cn(C)cn2)[C@H]1Cc1cccnc1.O=C(O)C(F)(F)F.O=C(O)C(F)(F)F.O=C(O)C(F)(F)F` | 0.434 | -2.34 | 4.68 | - | - |
| 61 | `O=C(Cn1ccc2c(Cl)cccc21)Nc1nc[nH]n1` | -16.45 | -13.02 | 12.9 | 3.96 | 2 |
| 62 | `CN1CCCCC1Cc1nc2c(cc1C(N)=O)CCC2` (stereo unspecified) | 3.374 | -22.73 | 6.038 | -0.9701 | 14.81 |

Data taken from ChEMBL document CHEMBL3988442, “University of Dundee, Small-Polar-MMV Screening Library” (2021).